Reference: article PMC11527234
Results are given in words; binding and its absence hold for the method and conditions named. Binding seen in cells or lysates may run through a third protein. Some results given as binding are weak or reduced against the parent protein; the word gives no strength.

Biological target: T1, mucin 15 (human (endogenous in OVCAR3)) (UniProt Q8N387)
T1 sequence: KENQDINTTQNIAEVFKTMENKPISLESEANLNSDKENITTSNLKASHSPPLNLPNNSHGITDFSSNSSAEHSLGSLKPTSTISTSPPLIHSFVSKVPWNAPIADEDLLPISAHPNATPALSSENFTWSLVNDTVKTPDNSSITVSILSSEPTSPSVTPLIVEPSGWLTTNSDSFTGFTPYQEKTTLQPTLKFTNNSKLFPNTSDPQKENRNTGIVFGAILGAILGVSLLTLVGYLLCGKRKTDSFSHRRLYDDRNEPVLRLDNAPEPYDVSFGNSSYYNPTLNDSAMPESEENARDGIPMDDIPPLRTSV
Test: co-IP; OVCAR3 lysate (static adherent culture, 70% confluency) incubated overnight at 4°C with anti-MUC15 coupled to Pierce agarose resin (Pierce Co-Immunoprecipitation Kit); eluate analysed by SDS-PAGE and immunoblot

B1: PLCβ1 (enzyme, UniProt Q9NQ66 1-1216)
chain: MAGAQPGVHALQLKPVCVSDSLKKGTKFVKWDDDSTIVTPIILRTDPQGFFFYWTDQNKETELLDLSLVKDARCGRHAKAPKDPKLRELLDVGNIGRLEQRMITVVYGPDLVNISHLNLVAFQEEVAKEWTNEVFSLATNLLAQNMSRDAFLEKAYTKLKLQVTPEGRIPLKNIYRLFSADRKRVETALEACSLPSSRNDSIPQEDFTPEVYRVFLNNLCPRPEIDNIFSEFGAKSKPYLTVDQMMDFINLKQRDPRLNEILYPPLKQEQVQVLIEKYEPNNSLARKGQISVDGFMRYLSGEENGVVSPEKLDLNEDMSQPLSHYFINSSHNTYLTAGQLAGNSSVEMYRQVLLSGCRCVELDCWKGRTAEEEPVITHGFTMTTEISFKEVIEAIAECAFKTSPFPILLSFENHVDSPKQQAKMAEYCRLIFGDALLMEPLEKYPLESGVPLPSPMDLMYKILVKNKKKSHKSSEGSGKKKLSEQASNTYSDSSSMFEPSSPGAGEADTESDDDDDDDDCKKSSMDEGTAGSEAMATEEMSNLVNYIQPVKFESFEISKKRNKSFEMSSFVETKGLEQLTKSPVEFVEYNKMQLSRIYPKGTRVDSSNYMPQLFWNAGCQMVALNFQTMDLAMQINMGMYEYNGKSGYRLKPEFMRRPDKHFDPFTEGIVDGIVANTLSVKIISGQFLSDKKVGTYVEVDMFGLPVDTRRKAFKTKTSQGNAVNPVWEEEPIVFKKVVLPTLACLRIAVYEEGGKFIGHRILPVQAIRPGYHYICLRNERNQPLTLPAVFVYIEVKDYVPDTYADVIEALSNPIRYVNLMEQRAKQLAALTLEDEEEVKKEADPGETPSEAPSEARTTPAENGVNHTTTLTPKPPSQALHSQPAPGSVKAPAKTEDLIQSVLTEVEAQTIEELKQQKSFVKLQKKHYKEMKDLVKRHHKKTTDLIKEHTTKYNEIQNDYLRRRAALEKSAKKDSKKKSEPSSPDHGSSTIEQDLAALDAEMTQKLIDLKDKQQQQLLNLRQEQYYSEKYQKREHIKLLIQKLTDVAEECQNNQLKKLKEICEKEKKELKKKMDKKRQEKITEAKSKDKSQMEEEKTEMIRSYIQEVVQYIKRLEEAQSKRQEKLVEKHKEIRQQILDEKPKLQVELEQEYQDKFKRLPLEILEFVQEAMKGKISEDSNHGSAPLSLSSDPGKVNHKTPSSEELGGDIPGKEFDTPL
binding: binds
